These are yes or no findings as the source states them, for the method shown. Binding seen in cells or lysates may run through a third protein. These calls come from enrichment with a bait or labelling near it, and not all partners need be listed.

By UniProt entry, the sequences of proteins in these tests, tags left out.
UniProt P67870: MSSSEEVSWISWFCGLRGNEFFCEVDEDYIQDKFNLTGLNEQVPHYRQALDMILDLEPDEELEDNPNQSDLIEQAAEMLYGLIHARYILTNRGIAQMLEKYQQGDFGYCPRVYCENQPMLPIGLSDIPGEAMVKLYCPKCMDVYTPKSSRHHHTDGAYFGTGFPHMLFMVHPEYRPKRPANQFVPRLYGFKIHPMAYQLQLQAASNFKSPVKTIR

This passage reports binding results from publication PMC9092267.

For this test, the target named is GST-tagged CK2β, wild type (Homo sapiens) (UniProt P67870). Put plainly: affinity purification with mass spectrometry; Glutathione Sepharose 4B beads carrying GST-tagged CK2β in precleared whole HeLa lysate; label-free quantification; proteins obtained with GST only excluded; only the target purified.

B1: DVL1, endogenous (protein, UniProt O14640 1-695)
chain: MAETKIIYHMDEEETPYLVKLPVAPERVTLADFKNVLSNRPVHAYKFFFKSMDQDFGVVKEEIFDDNAKLPCFNGRVVSWLVLAEGAHSDAGSQGTDSHTDLPPPLERTGGIGDSRPPSFHPNVASSRDGMDNETGTESMVSHRRERARRRNREEAARTNGHPRGDRRRDVGLPPDSASTALSSELESSSFVDSDEDGSTSRLSSSTEQSTSSRLIRKHKRRRRKQRLRQADRASSFSSITDSTMSLNIVTVTLNMERHHFLGISIVGQSNDRGDGGIYIGSIMKGGAVAADGRIEPGDMLLQVNDVNFENMSNDDAVRVLREIVSQTGPISLTVAKCWDPTPRSYFTVPRADPVRPIDPAAWLSHTAALTGALPRYGTSPCSSAVTRTSSSSLTSSVPGAPQLEEAPLTVKSDMSAVVRVMQLPDSGLEIRDRMWLKITIANAVIGADVVDWLYTHVEGFKERREARKYASSLLKHGFLRHTVNKITFSEQCYYVFGDLCSNLATLNLNSGSSGTSDQDTLAPLPHPAAPWPLGQGYPYQYPGPPPCFPPAYQDPGFSYGSGSTGSQQSEGSKSSGSTRSSRRAPGREKERRAAGAGGSGSESDHTAPSGVGSSWRERPAGQLSRGSSPRSQASATAPGLPPPHPTTKAYTVVGGPPGGPPVRELAAVPPELTGSRQSFQKAMGNPCEFFVDIM
B1: the binding result is on record as “binds”.
